Results as given in publication PMC13561875.

Target: human recombinant insulin (human)
Test: ELISA; polyreactivity ELISA; plates coated with 5 μg ml^−1 human recombinant insulin in 0.05 M carbonate-bicarbonate buffer overnight at room temperature, blocked with 2% BSA; antibodies at 4 μg ml^−1 followed by three serial dilutions (1:4), 1 hour at room temperature; detection with anti-human IgG HRP, OD 450 nm; both purified

B1: RA32 antibody (antibody, V domains shown)
VH: QVQLRQPGIELAKSGTSVKLSCKASGFTFTSYWMHWVRQRPGQGLEWIGHINPNKDGINFNERFKTKATLTVDRSSATAFMQLSSLTSADSAVYYCARWGPGYFDYWGQGTTLTVSS
VL: DLVLTQSPASVAVSPGQRATISCRVSESIDNFGISFMNWFQQKPGQPPKLLIYFASKQGSGVPARFTGSGSGTNFSLNIHPMEEDDTAMYFCQQSKEVPYTFGGGTKLEIK
binding: binds

B2: AT5 antibody (antibody, V domains shown)
VH: QVQLQQPGAELVKPGASLKLSCQASGYIFTSYWLHWVKQRPGQGLEWIGMILPNSGSTYYNEEFKTKAALTVDKSSSTAYMQLTSLTSEDSAVYYCARSTTVVASPYVMDYWGQGTSVTVSS
VL: DIVLTQSPATLSVTPGDSVSLSCRASQNISNNLHWCQQKSHESPRLLIKYASQSISGIPSRFSGSGSGADFTLSLNSVETEDFGMYFCQQTNSWPLTFGAGTKLELK
binding: no binding (tested: 4 μg ml^−1)

These are yes or no findings as the source states them, for the method shown. A result given as binding can be weak or reduced; the word gives no strength.
